These results are taken from publication PMC3851374.

In this test the target is glutamate NMDA receptor NR1 subunit (mouse (endogenous in cerebral cortex synaptosomes and cortical cell cultures)) (UniProt P35438). The test can be described thus: co-IP; membranes of cortical cell cultures from WT and HINT1-/- mice, uninfected or infected with HINT1 lentiviral particles; NR1 subunits immunoprecipitated, blots probed for HINT1 and CNR1; cells from 10 wells pooled.

Results are given in words; binding and its absence hold for the method and conditions named. In cells and extracts the contact can be indirect. Some binding calls cover weakened binding; strength is not graded here. Tags and fused reporters may be left off the sequences shown.

B1: histidine triad nucleotide-binding protein 1 (protein, UniProt P70349 1-126)
chain: MADEIAKAQVAQPGGDTIFGKIIRKEIPAKIIFEDDRCLAFHDISPQAPTHFLVIPKKHISQISVADDDDESLLGHLMIVGKKCAADLGLKRGYRMVVNEGADGGQSVYHIHLHVLGGRQMNWPPG
In the case of B1, the binding entry is “binds”.
